Results on four molecules are retold here after PMC5727187, “Insights into the structure and assembly of a bacterial cellulose secretion system” (Nature Communications, 2017).

The chains behind the UniProt entries cited, without tags or fusion partners.
UniProt P37657: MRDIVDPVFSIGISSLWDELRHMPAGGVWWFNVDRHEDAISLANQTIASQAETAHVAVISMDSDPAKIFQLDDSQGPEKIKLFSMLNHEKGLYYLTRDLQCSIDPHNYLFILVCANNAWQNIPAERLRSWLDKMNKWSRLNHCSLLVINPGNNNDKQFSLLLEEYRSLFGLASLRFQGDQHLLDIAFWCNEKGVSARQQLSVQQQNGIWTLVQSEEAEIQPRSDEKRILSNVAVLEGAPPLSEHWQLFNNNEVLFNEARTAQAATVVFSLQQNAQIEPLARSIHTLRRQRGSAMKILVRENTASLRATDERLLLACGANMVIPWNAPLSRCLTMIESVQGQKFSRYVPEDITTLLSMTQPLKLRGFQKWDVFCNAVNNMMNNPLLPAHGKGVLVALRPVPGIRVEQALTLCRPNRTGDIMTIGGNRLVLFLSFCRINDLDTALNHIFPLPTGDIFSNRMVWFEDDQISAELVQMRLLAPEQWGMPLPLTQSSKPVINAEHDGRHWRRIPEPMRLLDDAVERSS

Sequences and labels used below:
T1: BcsA^HA-FLAG synthase (E. coli 1094) (UniProt P37653)
T1 sequence: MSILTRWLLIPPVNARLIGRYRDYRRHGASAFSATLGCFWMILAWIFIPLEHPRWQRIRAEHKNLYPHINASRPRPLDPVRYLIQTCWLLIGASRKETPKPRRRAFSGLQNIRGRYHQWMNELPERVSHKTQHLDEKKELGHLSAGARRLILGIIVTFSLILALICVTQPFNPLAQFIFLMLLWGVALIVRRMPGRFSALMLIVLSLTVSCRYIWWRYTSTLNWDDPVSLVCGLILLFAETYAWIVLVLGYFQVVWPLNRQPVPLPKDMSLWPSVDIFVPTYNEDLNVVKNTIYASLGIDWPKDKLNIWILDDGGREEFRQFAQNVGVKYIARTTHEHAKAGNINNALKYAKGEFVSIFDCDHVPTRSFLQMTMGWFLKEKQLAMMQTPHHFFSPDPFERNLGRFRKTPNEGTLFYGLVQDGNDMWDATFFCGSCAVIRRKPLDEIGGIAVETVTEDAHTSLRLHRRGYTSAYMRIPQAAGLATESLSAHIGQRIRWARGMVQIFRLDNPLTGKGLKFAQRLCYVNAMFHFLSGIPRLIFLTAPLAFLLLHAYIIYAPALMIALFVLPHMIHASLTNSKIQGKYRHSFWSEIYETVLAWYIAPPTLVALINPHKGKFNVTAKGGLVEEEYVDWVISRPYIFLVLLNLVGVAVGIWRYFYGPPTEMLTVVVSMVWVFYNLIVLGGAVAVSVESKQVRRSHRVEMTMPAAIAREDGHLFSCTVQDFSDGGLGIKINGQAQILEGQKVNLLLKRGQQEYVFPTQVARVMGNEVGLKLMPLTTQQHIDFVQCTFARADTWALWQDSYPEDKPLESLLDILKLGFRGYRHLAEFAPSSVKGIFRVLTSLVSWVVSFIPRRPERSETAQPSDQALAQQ

B1: BcsF (protein, UniProt P0ADJ5 1-63)
chain: MMTISDIIEIIVVCALIFFPLGYLARHSLRRIRDTLRLFFAKPRYVKPAGTLRRTEKARATKK
B2: BcsG (protein, UniProt P37659 1-559)
chain: MTQFTQNTAMPSSLWQYWRGLSGWNFYFLVKFGLLWAGYLNFHPLLNLVFAAFLLMPLPRYSLHRLRHWIALPIGFALFWHDTWLPGPESIMSQGSQVAGFSTDYLIDLVTRFINWQMIGAIFVLLVAWLFLSQWIRITVFVVAILLWLNVLTLAGPSFSLWPAGQPTTTVTTTGGNAAATVAATGGAPVVGDMPAQTAPPTTANLNAWLNNFYNAEAKRKSTFPSSLPADAQPFELLVINICSLSWSDIEAAGLMSHPLWSHFDIEFKNFNSATSYSGPAAIRLLRASCGQTSHTNLYQPANNDCYLFDNLSKLGFTQHLMMGHNGQFGGFLKEVRENGGMQSELMDQTNLPVILLGFDGSPVYDDTAVLNRWLDVTEKDKNSRSATFYNTLPLHDGNHYPGVSKTADYKARAQKFFDELDAFFTELEKSGRKVMVVVVPEHGGALKGDRMQVSGLRDIPSPSITDVPVGVKFFGMKAPHQGAPIVIEQPSSFLAISDLVVRVLDGKIFTEDNVDWKKLTSGLPQTAPVSENSNAVVIQYQDKPYVRLNGGDWVPYPQ

These are yes or no findings as the source states them, for the method shown. Binding seen in cells or lysates may run through a third protein. A yes stands for co-enrichment or nearness to the bait. Other partners may have been found. Where a sequence is shown, tags or fusion partners need not be part of it.

The assay concerns the target T1, BcsA^HA-FLAG synthase (E. coli 1094). Put plainly: affinity purification with mass spectrometry; ANTI-FLAG M2 affinity gel on detergent-solubilised membranes (digitonin, β-DDM, DM-NPG, LM-NPG) of E. coli 1094 bcsA^HA-FLAG 2K7, 3X FLAG peptide elution, 10–40% glycerol gradient; fractions analysed by NS-EM, SDS-PAGE, LC-MS and western blot; 20 mM HEPES pH 8.0, 120 mM NaCl, AppCp, c-di-GMP. On the technique in general: In western blotting, separated proteins are transferred to a membrane and probed.
As for BcsE (from UniProt P37657 1-523), the binding entry is reported as “binds”. In the case of BcsR (E. coli 1094) it was “binds”; in that of B1, “binds”.

Turning to B2, the binding result is reported as “binds weakly”.
